Measurements as given in publication doi:10.1101/266833.

T1: Upf1-TAP (S. cerevisiae) (UniProt P30771)
T1 sequence: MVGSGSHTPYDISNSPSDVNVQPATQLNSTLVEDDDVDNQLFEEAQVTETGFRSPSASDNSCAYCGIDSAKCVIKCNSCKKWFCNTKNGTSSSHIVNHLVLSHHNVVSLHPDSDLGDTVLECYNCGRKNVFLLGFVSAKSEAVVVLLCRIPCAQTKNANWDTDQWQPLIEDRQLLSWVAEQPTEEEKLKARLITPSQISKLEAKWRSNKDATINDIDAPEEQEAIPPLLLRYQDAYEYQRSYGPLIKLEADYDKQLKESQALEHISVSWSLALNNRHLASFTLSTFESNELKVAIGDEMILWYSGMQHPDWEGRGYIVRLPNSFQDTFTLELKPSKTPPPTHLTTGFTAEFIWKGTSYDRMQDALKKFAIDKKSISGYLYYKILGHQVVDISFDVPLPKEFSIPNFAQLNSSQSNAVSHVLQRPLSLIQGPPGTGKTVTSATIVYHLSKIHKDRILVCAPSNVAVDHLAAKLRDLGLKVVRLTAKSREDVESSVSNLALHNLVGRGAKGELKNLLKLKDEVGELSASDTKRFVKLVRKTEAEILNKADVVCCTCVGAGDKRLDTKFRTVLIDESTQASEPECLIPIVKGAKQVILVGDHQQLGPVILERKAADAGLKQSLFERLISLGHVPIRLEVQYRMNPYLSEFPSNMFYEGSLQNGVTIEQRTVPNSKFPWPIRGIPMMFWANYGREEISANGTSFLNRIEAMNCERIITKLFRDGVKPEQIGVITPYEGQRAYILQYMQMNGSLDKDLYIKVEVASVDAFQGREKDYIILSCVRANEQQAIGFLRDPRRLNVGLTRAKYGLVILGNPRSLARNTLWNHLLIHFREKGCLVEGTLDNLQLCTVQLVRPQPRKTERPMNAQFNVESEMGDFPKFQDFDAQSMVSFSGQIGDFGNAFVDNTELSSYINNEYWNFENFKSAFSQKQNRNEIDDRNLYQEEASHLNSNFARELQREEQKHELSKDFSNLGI

T2: Dcp1-TAP (S. cerevisiae) (UniProt Q12517)
T2 sequence: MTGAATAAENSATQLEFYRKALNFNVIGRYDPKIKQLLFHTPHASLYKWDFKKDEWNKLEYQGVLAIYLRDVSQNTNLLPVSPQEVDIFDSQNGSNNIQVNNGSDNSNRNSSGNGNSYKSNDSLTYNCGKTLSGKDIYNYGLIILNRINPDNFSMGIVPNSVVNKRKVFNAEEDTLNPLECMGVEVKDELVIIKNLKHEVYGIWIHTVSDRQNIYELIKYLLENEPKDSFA

T3: Ebs1-TAP (S. cerevisiae) (UniProt Q03466)
T3 sequence: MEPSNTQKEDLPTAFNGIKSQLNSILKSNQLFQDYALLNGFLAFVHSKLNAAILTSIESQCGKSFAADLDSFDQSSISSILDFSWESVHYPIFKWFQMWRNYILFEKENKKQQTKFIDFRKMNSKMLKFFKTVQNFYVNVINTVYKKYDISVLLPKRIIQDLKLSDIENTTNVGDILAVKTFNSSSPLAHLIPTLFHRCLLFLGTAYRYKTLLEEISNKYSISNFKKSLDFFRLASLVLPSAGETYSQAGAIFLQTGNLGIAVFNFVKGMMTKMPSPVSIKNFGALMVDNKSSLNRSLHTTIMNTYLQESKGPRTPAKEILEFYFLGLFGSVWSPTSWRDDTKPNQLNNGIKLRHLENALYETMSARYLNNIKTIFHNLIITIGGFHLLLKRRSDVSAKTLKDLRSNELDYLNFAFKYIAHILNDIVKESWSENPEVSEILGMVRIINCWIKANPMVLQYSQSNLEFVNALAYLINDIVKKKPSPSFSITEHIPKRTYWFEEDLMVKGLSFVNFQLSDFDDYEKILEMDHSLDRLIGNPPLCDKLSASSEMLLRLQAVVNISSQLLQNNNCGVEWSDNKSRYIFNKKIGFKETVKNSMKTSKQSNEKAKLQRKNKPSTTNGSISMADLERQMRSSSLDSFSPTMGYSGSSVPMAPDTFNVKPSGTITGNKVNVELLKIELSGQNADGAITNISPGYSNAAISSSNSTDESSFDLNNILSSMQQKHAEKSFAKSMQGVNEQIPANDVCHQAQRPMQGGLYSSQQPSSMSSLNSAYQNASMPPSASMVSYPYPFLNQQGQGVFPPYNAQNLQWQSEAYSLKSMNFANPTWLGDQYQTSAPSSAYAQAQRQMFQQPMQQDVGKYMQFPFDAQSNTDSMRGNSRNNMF

T4: TAP-Upf1-CH (2-208) (S. cerevisiae) (UniProt P30771)
T4 sequence: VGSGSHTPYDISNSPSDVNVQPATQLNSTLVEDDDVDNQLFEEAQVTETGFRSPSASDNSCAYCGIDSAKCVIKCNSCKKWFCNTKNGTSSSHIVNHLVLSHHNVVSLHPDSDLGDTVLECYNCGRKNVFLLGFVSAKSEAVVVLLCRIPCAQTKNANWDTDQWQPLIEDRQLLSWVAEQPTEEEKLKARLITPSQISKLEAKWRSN

T5: TAP-Upf1-FL (S. cerevisiae) (UniProt P30771)
T5 sequence: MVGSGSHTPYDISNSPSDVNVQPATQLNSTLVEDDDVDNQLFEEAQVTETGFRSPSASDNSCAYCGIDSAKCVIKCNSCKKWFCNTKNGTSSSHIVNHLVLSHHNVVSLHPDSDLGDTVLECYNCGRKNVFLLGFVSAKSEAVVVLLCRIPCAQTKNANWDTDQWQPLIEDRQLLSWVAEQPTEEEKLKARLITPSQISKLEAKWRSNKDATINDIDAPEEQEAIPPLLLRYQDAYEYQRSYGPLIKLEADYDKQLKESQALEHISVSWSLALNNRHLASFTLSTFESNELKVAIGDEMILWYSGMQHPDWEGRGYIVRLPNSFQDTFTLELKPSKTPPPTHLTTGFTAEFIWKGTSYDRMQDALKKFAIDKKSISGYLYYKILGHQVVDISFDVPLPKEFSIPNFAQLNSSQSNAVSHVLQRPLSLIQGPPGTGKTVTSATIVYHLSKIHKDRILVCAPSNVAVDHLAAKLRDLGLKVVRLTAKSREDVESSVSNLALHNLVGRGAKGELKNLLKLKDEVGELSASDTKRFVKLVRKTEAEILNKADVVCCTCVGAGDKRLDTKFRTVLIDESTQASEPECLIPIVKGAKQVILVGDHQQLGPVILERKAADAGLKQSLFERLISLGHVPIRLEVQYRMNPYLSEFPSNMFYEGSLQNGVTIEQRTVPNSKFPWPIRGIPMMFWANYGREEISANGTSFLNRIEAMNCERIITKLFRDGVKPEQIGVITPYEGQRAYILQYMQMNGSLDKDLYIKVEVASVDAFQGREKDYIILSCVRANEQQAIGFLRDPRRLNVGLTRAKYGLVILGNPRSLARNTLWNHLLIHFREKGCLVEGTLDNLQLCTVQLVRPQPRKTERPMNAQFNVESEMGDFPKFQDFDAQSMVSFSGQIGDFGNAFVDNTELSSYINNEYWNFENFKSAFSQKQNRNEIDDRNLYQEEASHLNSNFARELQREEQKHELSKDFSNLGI


Key:
Assay in all cases: affinity purification with mass spectrometry
Upf1-TAP (S. cerevisiae) [1] = target: T1, Upf1-TAP (S. cerevisiae)
Dcp1-TAP (S. cerevisiae) = target: T2, Dcp1-TAP (S. cerevisiae)
Ebs1-TAP (S. cerevisiae) = target: T3, Ebs1-TAP (S. cerevisiae)
Upf1-TAP (S. cerevisiae) [2] = target: T1, Upf1-TAP (S. cerevisiae); remark: listed apart in the source
[3] = target: T4, TAP-Upf1-CH (2-208) (S. cerevisiae)
[4] = target: T4, TAP-Upf1-CH (2-208) (S. cerevisiae); remark: listed apart in the source
[5] = target: T5, TAP-Upf1-FL (S. cerevisiae)
[6] = target: T5, TAP-Upf1-FL (S. cerevisiae); remark: listed apart in the source

Row | binding (Upf1-TAP (S. cerevisiae) [1]) | binding (Dcp1-TAP (S. cerevisiae)) | binding (Ebs1-TAP (S. cerevisiae)) | binding (Upf1-TAP (S. cerevisiae) [2]) | binding [3] | binding [4] | binding [5] | binding [6] | Binder
1 | binds | binds | binds | binds | – | – | – | – | Hrr25 (enzyme, UniProt P29295 1-494) MDLRVGRKFRIGRKIGSGSFGDIYHGTNLISGEEVAIKLESIRSRHPQLDYESRVYRYLSGGVGIPFIRWFGREGEYNAMVIDLLGPSLEDLFNYCHRRFSFKTVIMLALQMFCRIQYIHGRSFIHRDIKPDNFLMGVGRRGSTVHVIDFGLSKKYRDFNTHRHIPYRENKSLTGTARYASVNTHLGIEQSRRDDLESLGYVLIYFCKGSLPWQGLKATTKKQKYDRIMEKKLNVSVETLCSGLPLEFQEYMAYCKNLKFDEKPDYLFLARLFKDLSIKLEYHNDHLFDWTMLRYTKAMVEKQRDLLIEKGDLNANSNAASASNSTDNKSETFNKIKLLAMKKFPTHFHYYKNEDKHNPSPEEIKQQTILNNNAASSLPEELLNALDKGMENLRQQQPQQQVQSSQPQPQPQQLQQQPNGQRPNYYPEPLLQQQQRDSQEQQQQVPMATTRATQYPPQINSNNFNTNQASVPPQMRSNPQQPPQDKPAGQSIWL
2 | – | – | binds | – | binds | binds | – | – | Dcp2 (enzyme, UniProt P53550 1-970) MSLPLRHALENVTSVDRILEDLLVRFIINCPNEDLSSVERELFHFEEASWFYTDFIKLMNPTLPSLKIKSFAQLIIKLCPLVWKWDIRVDEALQQFSKYKKSIPVRGAAIFNENLSKILLVQGTESDSWSFPRGKISKDENDIDCCIREVKEEIGFDLTDYIDDNQFIERNIQGKNYKIFLISGVSEVFNFKPQVRNEIDKIEWFDFKKISKTMYKSNIKYYLINSMMRPLSMWLRHQRQIKNEDQLKSYAEEQLKLLLGITKEEQIDPGRELLNMLHTAVQANSNNNAVSNGQVPSSQELQHLKEQSGEHNQQKDQQSSFSSQQQPSIFPSLSEPFANNKNVIPPTMPMANVFMSNPQLFATMNGQPFAPFPFMLPLTNNSNSANPIPTPVPPNFNAPPNPMAFGVPNMHNLSGPAVSQPFSLPPAPLPRDSGYSSSSPGQLLDILNSKKPDSNVQSSKKPKLKILQRGTDLNSIKQNNNDETAHSNSQALLDLLKKPTSSQKIHASKPDTSFLPNDSVSGIQDAEYEDFESSSDEEVETARDERNSLNVDIGVNVMPSEKDSRRSQKEKPRNDASKTNLNASAESNSVEWGPGKSSPSTQSKQNSSVGMQNKYRQEIHIGDSDAYEVFESSSDEEDGKKLEELEQTQDNSKLISQDILKENNFQDGEVPHRDMPTESNKSINETVGLSSTTNTVKKVPKVKILKRGETFASLANDKKAFDSSSNVSSSKDLLQMLRNPISSTVSSNQQSPKSQHLSGDEEIMMMLKRNSVSKPQNSEENASTSSINDANASELLGMLKQKEKDITAPKQPYNVDSYSQKNSAKGLLNILKKNDSTGYPRTEGGPSSEMSTSMKRNDATNNQELDKNSTELLNYLKPKPLNDGYENISNKDSSHELLNILHGNKNSSAFNNNVYATDGYSLASDNNENSSNKLLNMLQNRSSAINEPNFDVRSNGTSGSNELLSILHRK
3 | binds | – | binds | binds | binds | binds | binds | binds | Dcp1 (protein, UniProt Q12517 1-231) MTGAATAAENSATQLEFYRKALNFNVIGRYDPKIKQLLFHTPHASLYKWDFKKDEWNKLEYQGVLAIYLRDVSQNTNLLPVSPQEVDIFDSQNGSNNIQVNNGSDNSNRNSSGNGNSYKSNDSLTYNCGKTLSGKDIYNYGLIILNRINPDNFSMGIVPNSVVNKRKVFNAEEDTLNPLECMGVEVKDELVIIKNLKHEVYGIWIHTVSDRQNIYELIKYLLENEPKDSFA
4 | binds | binds | binds | binds | binds | binds | binds | binds | Edc3 (protein, UniProt P39998 1-551) MSQFVGFGVQVELKDGKLIQGKIAKATSKGLTLNDVQFGDGGKSQAFKVRASRLKDLKVLTVASQSGKRKQQRQQQQQNDYNQNRGEHIDWQDDDVSKIKQQEDFDFQRNLGMFNKKDVFAQLKQNDDILPENRLQGHNRKQTQLQQNNYQNDELVIPDAKKDSWNKISSRNEQSTHQSQPQQDAQDDLVLEDDEHEYDVDDIDDPKYLPITQSLNITHLIHSATNSPSINDKTKGTVINDKDQVLAKLGQMIISQSRSNSTSLPAANKQTTIRSKNTKQNIPMATPVQLLEMESITSEFFSINSAGLLENFAVNASFFLKQKLGGRARLRLQNSNPEPLVVILASDSNRSGAKALALGRHLCQTGHIRVITLFTCSQNELQDSMVKKQTDIYKKCGGKIVNSVSSLESAMETLNSPVEIVIDAMQGYDCTLSDLAGTSEVIESRIKSMISWCNKQRGSTKVWSLDIPNGFDAGSGMPDIFFSDRIEATGIICSGWPLIAINNLIANLPSLEDAVLIDIGIPQGAYSQRTSLRKFQNCDLFVTDGSLLLDL

Like-named read-outs stand apart in the source and are kept apart here. Results are given in words; binding and its absence hold for the method and conditions named. Binding seen in cells or lysates may run through a third protein. Here binding means that the protein was enriched with, or labelled near, the bait; the list need not be complete.
